# Data published in article PMC12431657, “Discovery and mechanistic insights of dibenzoylmethane as a broad spectrum inhibitor of coronavirus” (PLOS Pathogens, 2025).
# Counter-ions that a name gives are not always drawn. Like-named read-outs stand apart in the source and are kept apart here. Out of some 3,300 compounds screened, about 95 (3%) showed an effect of 50% or more. This is one part of the list. Peptide text beside a SMILES is read from it.
# Tested on: HCoV-229E
# Parameters: species or system Huh-7; HTS, protection from HCoV-229E induced cell death, luminescent cell viability (CellCounting-Lite 2.0), inhibition rate
# Details: 24 h post infection, 1 h compound pre-incubation, 10 µM, inhibitor
Compound,229E Inhibition rate [%],"229E Inhibition rate (229E Inhibition rate, 24 h) [%]"
CCCCCCCC/C=C\CCCCCCCCCCCC(=O)O [Erucic acid],36.2,–
O=C(O)CCCCCCCCC(=O)O [Decanedioic acid],17.4,–
O=c1c(O)c(-c2ccccc2)oc2cc(O)cc(O)c12 [Galangin],8,–
CC1(C)C=Cc2c(-c3c4c(c5ccccc5c3O)OC(C)(C)C=C4)c(O)c3ccccc3c2O1 [Tectol],44.9,–
OC[C@H]1O[C@@](CO)(OC[C@@]2(OC[C@@]3(OC[C@@]4(O[C@H]5O[C@H](CO)[C@@H](O)[C@H](O)[C@H]5O)O[C@H](CO)[C@@H](O)[C@@H]4O)O[C@H](CO)[C@@H](O)[C@@H]3O)O[C@H](CO)[C@@H](O)[C@@H]2O)[C@@H](O)[C@@H]1O [1F-Fructofuranosylnystose],16.7,–
CCCCC[C@H](CC(=O)NO)C(=O)N[C@H](C(=O)N1CCC[C@H]1CO)C(C)C [Actinonin],7.2,–
"NCC(N)C(=O)O (centres unmarked) [2,3-Diaminopropanoic acid hydrochloride]",6.7,–
O=C(O)c1ccnc2ccccc12 [NSC 13138],11.6,–
"C[C@H](CCC(=O)O)[C@H]1CC[C@H]2[C@@H]3CC[C@@H]4C[C@H](O)CC[C@]4(C)[C@H]3C[C@@H](O)[C@]12C [3α,12β-Dihydroxycholanoic acid]",16.7,–
CCCCCCCCCCCCCCCCO [1-Hexadecanol],14,–
O=C(O)CC(O)(CC(=O)OCc1ccc(O[C@@H]2O[C@H](CO)[C@@H](O)[C@H](O)[C@H]2O)cc1)C(=O)OCc1ccc(O[C@@H]2O[C@H](CO)[C@@H](O)[C@H](O)[C@H]2O)cc1 (some centres unmarked) [Parishin B],14.4,–
COc1cc(/C=C/CO)cc(OC)c1O[C@@H]1O[C@H](CO)[C@@H](O)[C@H](O)[C@H]1O [Syringin],12.5,–
C/C=C(/C)C(=O)O[C@H]1[C@H](O)[C@]2(COC(C)=O)[C@H](O)C[C@]3(C)C(=CC[C@@H]4[C@@]5(C)CC[C@H](O[C@@H]6O[C@H](C(=O)O)[C@@H](O[C@@H]7O[C@H](CO)[C@@H](O)[C@H](O)[C@H]7O)[C@H](O)[C@H]6O[C@@H]6O[C@H](CO)[C@@H](O)[C@H](O)[C@H]6O)[C@](C)(CO)[C@@H]5CC[C@]43C)[C@@H]2CC1(C)C [Isoescin IB],8.9,–
COc1cc(O)c2c(=O)c(-c3ccc(O)cc3)coc2c1 [Prunetin],6.7,–
COc1cc(O)c2c(c1)O[C@H](c1ccc(O)cc1)CC2=O [Sakuranetin],0,–
CC1(C)O[C@H]2CC(=O)OC[C@]23[C@H]2CC[C@@]4(C)[C@H](c5ccoc5)OC(=O)[C@H]5O[C@]54[C@]2(C)[C@@H](O)C(=O)[C@@H]13 [Rutaevin],0,–
N[C@@H](Cc1ccc(O)c(Cl)c1)C(=O)O [3-Chloro-L-tyrosine],12.3,–
O=C(/C=C/c1ccccc1)OCc1ccccc1 [Benzyl cinnamate],40.9,–
Nc1ccn([C@@H]2O[C@H](CO)[C@@H](O)[C@H]2O)c(=O)n1 [Cytidine],9.8,–
CC(C)CCC[C@@H](C)[C@H]1CC[C@H]2[C@@H]3CC=C4C[C@@H](O)CC[C@]4(C)[C@H]3CC[C@]12C [Cholesterol],13.1,–
"N[C@H](C=O)[C@@H](O)[C@H](O)[C@H](O)CO [(2S,3R,4S,5R)-2-Amino-3,4,5,6-tetrahydroxyhexanal hydrochloride]",15.5,–
CCCCCCCC/C=C\CCCCCCCC(=O)OC [Methyl oleate],24.6,–

# Two consecutive records out of the list so far, quoted:
Compound,229E Inhibition rate [%],"229E Inhibition rate (229E Inhibition rate, 24 h) [%]"
COc1cc(O)c2c(=O)c(-c3ccc(O)cc3)coc2c1 [Prunetin],6.7,–
COc1cc(O)c2c(c1)O[C@H](c1ccc(O)cc1)CC2=O [Sakuranetin],0,–

# The results go on:

Compound,229E Inhibition rate [%],"229E Inhibition rate (229E Inhibition rate, 24 h) [%]"
CC1=CC[C@H]2C[C@@H]1C2(C)C [(-)-α-Pinene],20,–
COc1ccc(-c2oc3c4c(cc(O)c3c(=O)c2O)OC(C)(C)CC4)cc1 [β-Anhydroicaritin],14.4,–
O=C(O)CCCCCCCCCCC(=O)O [Dodecanedioic acid],13,–
"CC(C)(CC(=O)O)C(=O)O [2,2-Dimethylsuccinic acid]",13.8,–
CCCCC(O)C(=O)O (centres unmarked) [2-Hydroxyhexanoic acid],15.2,–
CC(=O)Nc1ccc(S(=O)(=O)O)c2cc(S(=O)(=O)O)c(N=Nc3ccccc3)c(O)c12 [Lignin],5.5,–
Cc1cn([C@H]2C[C@H](O)[C@@H](CO)O2)c(=O)[nH]c1=O [Thymidine],10.4,–
CC(C)=C1CC[C@@H](C)CC1=O [Pulegone],22.5,–
"Oc1ccc(O)c(O)c1 [1,2,4-Trihydroxybenzene]",18.5,–
COc1cc2c(c(O)c1OC)-c1c(cc(OC)c(OC)c1OC)C[C@@H](C)[C@@H](C)C2 [Schisanhenol],11.7,–
C[C@H]1CC[C@]2(NC1)O[C@H]1C[C@H]3[C@@H]4CC[C@H]5C[C@@H](O)CC[C@]5(C)[C@H]4CC[C@]3(C)[C@H]1[C@@H]2C [Tomatidine],–,55.9
O=C[C@H](O)[C@@H](O)[C@H](O[C@H]1O[C@H](CO)[C@@H](O[C@H]2O[C@H](CO)[C@@H](O[C@H]3O[C@H](CO)[C@@H](O[C@H]4O[C@H](CO)[C@@H](O)[C@H](O)[C@H]4O)[C@H](O)[C@H]3O)[C@H](O)[C@H]2O)[C@H](O)[C@H]1O)[C@H](O)CO [Maltopentaose],11.2,–
Oc1cc(O)c2c(c1)OC(c1ccc(O)c(O)c1)C(O)C2O (centres unmarked) [Leucocyanidin],0,–
NCCCCC(N)C(=O)O (racemic) [DL-Lysine],9.5,–
"O=C(O)c1cc(O)cc(O)c1 [3,5-Dihydroxybenzoic acid]",32.2,–
O=c1cc(-c2ccccc2)oc2ccc(O)cc12 [6-Hydroxyflavone],19.6,–
COc1ccc(-c2oc3c(CC=C(C)C)c(O)cc(O)c3c(=O)c2O)cc1 [Icaritin],8.6,–
O=c1c(O[C@@H]2O[C@H](CO)[C@@H](O)[C@H](O)[C@H]2O[C@@H]2O[C@H](CO)[C@@H](O)[C@H](O)[C@H]2O)c(-c2ccc(O)c(O)c2)oc2cc(O)cc(O)c12 [Baimaside],15.3,–
C[C@@H]1CC[C@]2(C(=O)O[C@@H]3O[C@H](CO)[C@@H](O)[C@H](O)[C@H]3O)CC[C@]3(C)C(=CC[C@@H]4[C@@]5(C)C[C@@H](O)[C@H](O)C(C)(C)[C@@H]5CC[C@]43C)[C@@H]2[C@]1(C)O [Rosamultin],22.7,–
COc1c(O)c(=O)n2c3ccccc3c3ccnc1c32 [Nigakinone],12.5,–
CC(C)C[C@H](NC(=O)[C@H](C)N)C(=O)O [L-Alanyl-L-leucine] (H-Ala-Leu-OH),12.7,–
COC(=O)/C=C/c1ccc(O)c(O)c1 [Methyl caffeate],12.6,–

# Full records, looked up by structure. Order of values: 229E Inhibition rate [%]	229E Inhibition rate (229E Inhibition rate, 24 h) [%]
# CC1(C)C=Cc2c(-c3c4c(c5ccccc5c3O)OC(C)(C)C=C4)c(O)c3ccccc3c2O1 [Tectol] is listed as 44.9	–
# Oc1cc(O)c2c(c1)OC(c1ccc(O)c(O)c1)C(O)C2O (centres unmarked) [Leucocyanidin] is listed as 0	–

# (list continues)

Compound,229E Inhibition rate [%],"229E Inhibition rate (229E Inhibition rate, 24 h) [%]"
Oc1cc(O)cc(/C=C/c2c(O)cccc2O)c1 [Gnetol],31.7,–
CCCCCCCCCCCC(=O)O [Lauric acid],19.5,–
C[C@@H](O)CC(=O)O [(R)-3-Hydroxybutanoic acid (sodium)],–,5.9
COc1c(O)cc(O)c2c(=O)cc(-c3ccccc3)oc12 [Wogonin],22.5,–
O=c1cc(O)cc(/C=C/c2ccc(O)c(O)c2)o1 [Hispidin],0,–
"CC(=O)[C@H]1CC[C@H]2[C@@H]3C[C@H](O)[C@H]4C[C@@H](O)CC[C@]4(C)[C@H]3CC[C@]12C [5α-Pregnane-3β,6α-diol-20-one]",39.5,–
Cc1cc(O)c(C)c2c1O[C@](C)(CCC[C@H](C)CCC[C@H](C)CCCC(C)C)CC2 [β-Tocopherol],21,–
"O=Cc1cc(O)ccc1O [2,5-Dihydroxybenzaldehyde]",10.3,–
O=c1[nH]cc([C@@H]2O[C@H](CO)[C@@H](O)[C@H]2O)c(=O)[nH]1 [Pseudouridine],8.5,–
"OC1COC(O)CO1 (centres unmarked) [1,4-Dioxane-2,5-diol]",19.9,–
CC(=O)O[C@H](CC(=O)[O-])C[N+](C)(C)C [Acetyl-L-carnitine (hydrochloride)],6.9,–
CNC[C@@H]1CC[C@@H](N)[C@@H](O[C@H]2[C@H](O)[C@@H](O[C@H]3OC[C@](C)(O)[C@H](NC)[C@H]3O)[C@H](N)C[C@@H]2N)O1 [Micronomicin (sulfate)],3.9,–
O=C(CCCCCCCCc1ccc(O)c(O)c1)c1c(O)cccc1O [Malabaricone C],42.8,–
NC(N)=NCCCC[C@H](N)C(=O)O [H-HomoArg-OH.HCl],15.5,–
CNCC(O)c1ccc(O)cc1 (centres unmarked) [Synephrine (hydrochloride)],–,18.5
CC(CC(=O)C[C@@H](C)[C@H]1CC(=O)[C@@]2(C)C3=C(C(=O)C[C@]12C)[C@@]1(C)CCC(=O)C(C)(C)[C@@H]1C[C@@H]3O)C(=O)O (some centres unmarked) [Ganoderic acid D],35.3,–
CC[C@]12CCCN3CCc4c(n(c5ccccc45)[C@@](O)(C(=O)OC)C1)[C@@H]32 [Vincamine],16.6,–
O=C1NCN(c2ccccc2)C12CCN(CCCOc1ccc(F)cc1)CC2 [Spiramide],51.4,–
C=CCSC[C@H](NC(=O)CC[C@H](N)C(=O)O)C(=O)O [γ-Glutamyl-S-allylcysteine],12.6,–
O=Cc1c[nH]c2cccc(O)c12 [4-Hydroxy-1H-indole-3-carbaldehyde],4.7,–
O=C(O)c1ccccc1O [Salicylic acid],–,0
